According to the supplement of paper PMC10849652:
The list shows a part of the results.

Amino acid sequences for entries named in this document (tags omitted). A change or cut given only in a name is not applied to a line headed by its entry.
UniProt Q9HBH9: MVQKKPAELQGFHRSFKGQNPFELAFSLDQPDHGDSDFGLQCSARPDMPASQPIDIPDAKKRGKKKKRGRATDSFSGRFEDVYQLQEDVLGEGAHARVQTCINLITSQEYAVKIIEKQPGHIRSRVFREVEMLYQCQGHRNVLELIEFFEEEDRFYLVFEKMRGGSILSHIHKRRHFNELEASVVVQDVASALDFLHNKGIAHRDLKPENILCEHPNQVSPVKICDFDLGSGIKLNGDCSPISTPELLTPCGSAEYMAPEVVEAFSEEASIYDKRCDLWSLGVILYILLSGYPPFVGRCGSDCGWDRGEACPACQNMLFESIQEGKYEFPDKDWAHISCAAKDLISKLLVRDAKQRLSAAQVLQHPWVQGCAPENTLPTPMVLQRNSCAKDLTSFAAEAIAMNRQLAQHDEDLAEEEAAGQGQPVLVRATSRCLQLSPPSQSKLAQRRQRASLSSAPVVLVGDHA
UniProt Q8N344: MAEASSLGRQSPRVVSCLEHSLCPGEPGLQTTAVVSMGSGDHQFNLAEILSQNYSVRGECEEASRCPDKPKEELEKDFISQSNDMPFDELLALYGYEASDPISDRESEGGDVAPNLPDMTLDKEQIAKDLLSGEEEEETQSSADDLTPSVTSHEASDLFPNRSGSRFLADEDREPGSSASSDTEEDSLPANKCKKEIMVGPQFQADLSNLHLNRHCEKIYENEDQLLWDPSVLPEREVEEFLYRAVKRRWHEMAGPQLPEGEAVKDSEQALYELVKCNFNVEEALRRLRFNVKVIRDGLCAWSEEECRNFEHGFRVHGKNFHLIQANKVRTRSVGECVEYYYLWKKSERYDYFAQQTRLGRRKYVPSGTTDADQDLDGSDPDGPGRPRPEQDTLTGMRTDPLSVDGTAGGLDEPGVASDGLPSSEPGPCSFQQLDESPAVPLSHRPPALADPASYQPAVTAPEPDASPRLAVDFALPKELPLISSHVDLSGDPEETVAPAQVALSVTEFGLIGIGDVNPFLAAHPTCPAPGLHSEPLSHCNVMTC
UniProt Q7L4E1: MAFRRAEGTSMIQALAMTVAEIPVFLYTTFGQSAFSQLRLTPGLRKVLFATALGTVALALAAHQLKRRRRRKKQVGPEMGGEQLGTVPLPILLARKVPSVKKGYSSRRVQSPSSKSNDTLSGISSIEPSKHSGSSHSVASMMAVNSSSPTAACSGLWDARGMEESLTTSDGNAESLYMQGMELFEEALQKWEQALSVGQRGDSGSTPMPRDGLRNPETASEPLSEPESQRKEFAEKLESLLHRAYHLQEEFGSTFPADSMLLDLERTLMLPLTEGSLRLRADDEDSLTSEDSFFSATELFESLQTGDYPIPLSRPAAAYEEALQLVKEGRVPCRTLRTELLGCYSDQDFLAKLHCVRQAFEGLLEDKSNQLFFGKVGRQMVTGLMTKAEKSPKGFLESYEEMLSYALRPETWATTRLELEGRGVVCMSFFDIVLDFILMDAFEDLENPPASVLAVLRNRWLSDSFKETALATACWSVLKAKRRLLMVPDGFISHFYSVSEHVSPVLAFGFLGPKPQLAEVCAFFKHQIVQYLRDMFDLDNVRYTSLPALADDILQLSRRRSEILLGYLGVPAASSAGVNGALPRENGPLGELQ
UniProt P16455, whole entry, looked up: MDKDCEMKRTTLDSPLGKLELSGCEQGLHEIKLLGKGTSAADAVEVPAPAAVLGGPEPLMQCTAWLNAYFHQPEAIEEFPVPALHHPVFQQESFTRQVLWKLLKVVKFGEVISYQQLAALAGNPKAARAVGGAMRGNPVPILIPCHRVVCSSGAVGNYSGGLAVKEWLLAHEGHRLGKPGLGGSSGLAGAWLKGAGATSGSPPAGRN
UniProt Q96FF7: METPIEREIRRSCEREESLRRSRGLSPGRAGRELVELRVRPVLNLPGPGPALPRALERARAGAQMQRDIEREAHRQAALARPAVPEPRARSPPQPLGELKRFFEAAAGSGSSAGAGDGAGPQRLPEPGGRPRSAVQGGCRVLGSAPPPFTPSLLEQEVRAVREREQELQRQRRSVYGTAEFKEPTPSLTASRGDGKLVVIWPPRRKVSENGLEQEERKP
UniProt Q8N3R9: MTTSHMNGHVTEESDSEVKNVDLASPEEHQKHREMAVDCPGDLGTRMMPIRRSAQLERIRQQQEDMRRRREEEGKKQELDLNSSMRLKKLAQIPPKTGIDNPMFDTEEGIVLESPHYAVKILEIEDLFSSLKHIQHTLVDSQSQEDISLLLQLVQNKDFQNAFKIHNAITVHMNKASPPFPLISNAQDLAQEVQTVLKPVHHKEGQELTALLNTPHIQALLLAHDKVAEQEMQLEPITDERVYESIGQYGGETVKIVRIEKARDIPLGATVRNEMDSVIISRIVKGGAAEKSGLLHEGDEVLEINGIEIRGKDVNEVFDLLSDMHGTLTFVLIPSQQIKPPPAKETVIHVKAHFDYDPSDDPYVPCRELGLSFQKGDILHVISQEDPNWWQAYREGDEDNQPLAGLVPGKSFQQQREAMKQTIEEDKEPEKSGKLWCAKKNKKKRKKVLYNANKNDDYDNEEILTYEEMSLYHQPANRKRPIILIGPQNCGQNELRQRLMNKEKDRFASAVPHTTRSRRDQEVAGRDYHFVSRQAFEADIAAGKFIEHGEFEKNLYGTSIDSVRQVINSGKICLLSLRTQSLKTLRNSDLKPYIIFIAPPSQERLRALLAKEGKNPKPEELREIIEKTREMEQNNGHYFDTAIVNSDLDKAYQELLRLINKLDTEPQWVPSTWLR
UniProt Q99583: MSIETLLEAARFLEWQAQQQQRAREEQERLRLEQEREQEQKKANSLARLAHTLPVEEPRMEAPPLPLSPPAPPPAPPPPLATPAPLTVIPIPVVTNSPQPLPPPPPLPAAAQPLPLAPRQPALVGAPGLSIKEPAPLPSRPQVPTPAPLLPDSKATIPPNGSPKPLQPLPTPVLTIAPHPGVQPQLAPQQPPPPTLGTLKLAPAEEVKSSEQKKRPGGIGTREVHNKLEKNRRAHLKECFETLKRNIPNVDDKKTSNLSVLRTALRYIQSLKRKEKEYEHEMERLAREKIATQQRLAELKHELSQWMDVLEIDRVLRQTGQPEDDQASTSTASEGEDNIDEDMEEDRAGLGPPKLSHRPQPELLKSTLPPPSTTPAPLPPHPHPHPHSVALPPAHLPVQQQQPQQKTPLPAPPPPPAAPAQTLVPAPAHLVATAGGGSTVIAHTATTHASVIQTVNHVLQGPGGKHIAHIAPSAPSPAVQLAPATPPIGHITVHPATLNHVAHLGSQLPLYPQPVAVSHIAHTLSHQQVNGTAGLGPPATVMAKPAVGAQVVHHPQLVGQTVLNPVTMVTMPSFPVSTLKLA
UniProt Q8N5J2: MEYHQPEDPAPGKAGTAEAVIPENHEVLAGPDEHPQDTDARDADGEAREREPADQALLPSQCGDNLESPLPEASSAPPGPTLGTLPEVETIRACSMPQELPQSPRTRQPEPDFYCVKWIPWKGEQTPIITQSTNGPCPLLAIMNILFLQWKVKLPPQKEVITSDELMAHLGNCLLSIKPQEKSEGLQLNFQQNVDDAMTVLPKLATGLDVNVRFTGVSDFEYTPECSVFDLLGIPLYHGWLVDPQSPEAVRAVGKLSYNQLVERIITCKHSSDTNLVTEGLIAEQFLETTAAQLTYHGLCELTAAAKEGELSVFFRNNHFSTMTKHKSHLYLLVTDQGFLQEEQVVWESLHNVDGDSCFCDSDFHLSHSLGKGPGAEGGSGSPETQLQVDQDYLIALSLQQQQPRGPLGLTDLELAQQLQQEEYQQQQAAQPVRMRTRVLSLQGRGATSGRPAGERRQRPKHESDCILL
UniProt Q9H8S9: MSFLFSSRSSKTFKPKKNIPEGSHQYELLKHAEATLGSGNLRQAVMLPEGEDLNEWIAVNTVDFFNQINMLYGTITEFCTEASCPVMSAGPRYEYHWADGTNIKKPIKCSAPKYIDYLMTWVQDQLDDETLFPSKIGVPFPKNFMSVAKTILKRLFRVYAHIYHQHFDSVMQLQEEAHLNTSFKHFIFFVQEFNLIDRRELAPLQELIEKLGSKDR
UniProt Q7Z3K6: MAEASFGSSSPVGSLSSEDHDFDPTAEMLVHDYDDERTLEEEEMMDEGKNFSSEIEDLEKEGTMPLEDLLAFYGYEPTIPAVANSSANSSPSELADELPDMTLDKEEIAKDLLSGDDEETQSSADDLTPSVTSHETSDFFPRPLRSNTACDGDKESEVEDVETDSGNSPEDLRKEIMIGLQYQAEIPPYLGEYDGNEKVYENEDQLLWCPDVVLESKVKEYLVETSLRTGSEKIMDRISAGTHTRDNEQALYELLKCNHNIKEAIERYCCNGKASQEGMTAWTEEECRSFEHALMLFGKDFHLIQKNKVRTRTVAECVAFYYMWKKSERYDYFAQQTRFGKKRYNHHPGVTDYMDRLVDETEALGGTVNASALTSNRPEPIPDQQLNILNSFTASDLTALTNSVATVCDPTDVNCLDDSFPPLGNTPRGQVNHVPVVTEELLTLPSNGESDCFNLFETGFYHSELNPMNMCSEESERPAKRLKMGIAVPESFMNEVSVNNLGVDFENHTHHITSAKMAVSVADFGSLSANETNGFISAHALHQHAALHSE
UniProt Q15773: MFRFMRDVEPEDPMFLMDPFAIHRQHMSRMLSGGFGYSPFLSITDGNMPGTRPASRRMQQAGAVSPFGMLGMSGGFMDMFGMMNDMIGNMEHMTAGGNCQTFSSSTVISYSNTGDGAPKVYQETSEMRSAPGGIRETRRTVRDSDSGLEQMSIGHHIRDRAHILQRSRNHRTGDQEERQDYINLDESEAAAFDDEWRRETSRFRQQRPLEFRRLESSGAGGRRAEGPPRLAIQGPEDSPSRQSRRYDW
UniProt Q9NPA3, whole entry, looked up: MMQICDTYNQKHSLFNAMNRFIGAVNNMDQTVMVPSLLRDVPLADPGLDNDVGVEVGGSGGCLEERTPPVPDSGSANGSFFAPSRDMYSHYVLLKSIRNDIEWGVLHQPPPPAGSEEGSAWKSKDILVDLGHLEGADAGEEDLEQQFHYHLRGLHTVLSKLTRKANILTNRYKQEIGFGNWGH
UniProt Q8NDA8: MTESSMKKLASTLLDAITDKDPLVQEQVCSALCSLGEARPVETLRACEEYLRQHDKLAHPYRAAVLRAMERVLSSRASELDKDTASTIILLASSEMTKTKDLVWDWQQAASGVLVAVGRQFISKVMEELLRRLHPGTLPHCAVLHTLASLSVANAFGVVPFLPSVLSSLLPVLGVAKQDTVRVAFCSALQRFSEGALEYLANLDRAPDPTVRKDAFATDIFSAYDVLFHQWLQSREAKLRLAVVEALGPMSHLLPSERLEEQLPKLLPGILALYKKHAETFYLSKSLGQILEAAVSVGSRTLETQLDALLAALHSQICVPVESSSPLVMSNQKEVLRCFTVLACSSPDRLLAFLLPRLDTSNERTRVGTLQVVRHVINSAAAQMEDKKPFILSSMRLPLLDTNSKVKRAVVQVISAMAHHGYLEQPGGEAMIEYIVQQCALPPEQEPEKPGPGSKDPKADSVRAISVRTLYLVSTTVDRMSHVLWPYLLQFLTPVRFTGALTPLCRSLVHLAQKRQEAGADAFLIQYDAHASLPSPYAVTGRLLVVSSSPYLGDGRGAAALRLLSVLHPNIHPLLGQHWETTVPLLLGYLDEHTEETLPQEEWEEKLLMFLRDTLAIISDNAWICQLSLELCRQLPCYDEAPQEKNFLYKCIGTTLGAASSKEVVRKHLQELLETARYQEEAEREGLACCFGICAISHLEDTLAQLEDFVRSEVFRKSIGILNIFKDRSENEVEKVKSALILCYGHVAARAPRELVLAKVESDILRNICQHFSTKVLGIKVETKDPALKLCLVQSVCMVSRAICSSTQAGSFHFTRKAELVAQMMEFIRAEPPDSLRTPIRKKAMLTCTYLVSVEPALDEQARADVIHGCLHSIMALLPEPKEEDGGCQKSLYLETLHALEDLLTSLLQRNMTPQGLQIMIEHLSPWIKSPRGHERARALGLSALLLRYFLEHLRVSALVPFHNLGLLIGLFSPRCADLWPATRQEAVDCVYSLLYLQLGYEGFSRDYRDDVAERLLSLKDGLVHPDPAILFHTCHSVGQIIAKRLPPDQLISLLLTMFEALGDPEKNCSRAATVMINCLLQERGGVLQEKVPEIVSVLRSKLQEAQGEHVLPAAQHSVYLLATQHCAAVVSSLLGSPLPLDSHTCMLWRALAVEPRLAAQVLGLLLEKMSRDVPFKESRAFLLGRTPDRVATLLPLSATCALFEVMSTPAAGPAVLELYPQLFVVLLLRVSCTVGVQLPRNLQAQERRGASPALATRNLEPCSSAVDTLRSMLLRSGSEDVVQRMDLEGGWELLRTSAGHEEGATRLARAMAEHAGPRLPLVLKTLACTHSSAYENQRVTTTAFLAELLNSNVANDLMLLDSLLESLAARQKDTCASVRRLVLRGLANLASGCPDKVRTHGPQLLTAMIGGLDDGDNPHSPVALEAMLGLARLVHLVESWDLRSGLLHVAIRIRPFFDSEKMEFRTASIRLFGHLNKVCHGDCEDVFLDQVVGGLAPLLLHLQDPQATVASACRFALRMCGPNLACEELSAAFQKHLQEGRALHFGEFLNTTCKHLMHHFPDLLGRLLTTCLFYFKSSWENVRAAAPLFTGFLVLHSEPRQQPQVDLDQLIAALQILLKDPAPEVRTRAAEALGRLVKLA

Columns and labels:
Assay in all cases: log2 fold change, soluble protein after heating vs DMSO (PISA); higher = thermal stabilisation; K562 lysate, 10 uM; active = over 0.2 and 3.5 SD of the protein, either way, in both replicates (recomputed)
duvelisib = compound: C[C@H](Nc1ncnc2nc[nH]c12)c1cc2cccc(Cl)c2c(=O)n1-c1ccccc1 [duvelisib]
Outline: (§1)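 Values give the log-two fold change in thermal stability against solvent controls, from duplicates. Crude K562 extract at 1 mg/mL protein, made by dounce homogenisation in PBS pH 7.4 with 1 mM MgCl2, was treated with 10 μM compound for 30 min. After 3 min heating across 48°C-58°C, aliquots were pooled, adjusted to 0.5% NP-40 at 4°C and centrifuged at 21,000xg for 90 min. The supernatant was measured by TMTpro 16plex LC-MS/MS with channel sums equalised.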

tozasertib = compound: Cc1cc(Nc2cc(N3CCN(C)CC3)nc(Sc3ccc(NC(=O)C4CC4)cc3)n2)n[nH]1 [tozasertib]
Outline: as §1

lapatinib = compound: CS(=O)(=O)CCNCc1ccc(-c2ccc3ncnc(Nc4ccc(OCc5cccc(F)c5)c(Cl)c4)c3c2)o1 [lapatinib]
Outline: as §1

pictilisib = compound: CS(=O)(=O)N1CCN(Cc2cc3nc(-c4cccc5[nH]ncc45)nc(N4CCOCC4)c3s2)CC1 [pictilisib]
Outline: as §1

crizotinib = compound: C[C@@H](Oc1cc(-c2cnn(C3CCNCC3)c2)cnc1N)c1c(Cl)ccc(F)c1Cl [crizotinib]
Outline: as §1

doramapimod = compound: Cc1ccc(-n2nc(C(C)(C)C)cc2NC(=O)Nc2ccc(OCCN3CCOCC3)c3ccccc23)cc1 [doramapimod]
Outline: as §1

bafetinib = compound: Cc1ccc(NC(=O)c2ccc(CN3CC[C@H](N(C)C)C3)c(C(F)(F)F)c2)cc1Nc1nccc(-c2cncnc2)n1 [bafetinib]
Outline: as §1

[1] = compound: C[C@H](C1=CC=C(C=C1)C(=O)NC2=C3C=CNC3=NC=C2)N
Outline: as §1

gandotinib = compound: Cc1cc(Nc2cc(CN3CCOCC3)c3nc(C)c(Cc4ccc(Cl)cc4F)n3n2)n[nH]1 [gandotinib]
Outline: as §1

[2] = compound: Cc1cccc(CC(=O)N2CCc3c2ccc(-c2cn(C)c4ncnc(N)c24)c3F)n1
Outline: as §1

Measured: log2 fold change

MKNK2 (UniProt Q9HBH9)
inactive: duvelisib -0.016 | tozasertib -0.015

MRPL16 (UniProt Q9NX20)
inactive: lapatinib 0.007 | pictilisib -0.076 | crizotinib -0.078 | duvelisib 0.069 | tozasertib -0.038 | doramapimod -0.048 | bafetinib -0.019

MIER2 (UniProt Q8N344)
inactive: pictilisib -0.025 | [1] -0.044 | duvelisib 0.028 | gandotinib 0.021 | tozasertib -0.201 | bafetinib -0.032 | [2] 0.004

MINDY4 (UniProt Q4G0A6)
inactive: pictilisib 0.167 | [1] 0.143 | duvelisib -0.06 | gandotinib -0.071 | bafetinib -0.014 | [2] 0.035

MIGA2 (UniProt Q7L4E1)
inactive: duvelisib 0.037 | tozasertib -0.335

MIDEAS, A0A1C7CYX1
inactive: lapatinib 0.035 | crizotinib -0.088 | duvelisib -0.178 | doramapimod 0.077

MICA (UniProt Q29983)
inactive: pictilisib -0.15 | [1] -0.336 | gandotinib 0 | bafetinib -0.012 | [2] 0.052

MGMT (UniProt P16455)
inactive: duvelisib -0.048

MITF (UniProt O75030)
inactive: crizotinib -0.046 | [1] 0.091 | duvelisib -0.042 | gandotinib -0.008 | tozasertib -0.056 | doramapimod 0.03 | [2] -0.049

Taken from the results shown (two entries):
MIGA2 (UniProt Q7L4E1)
inactive: duvelisib 0.037 | tozasertib -0.335

MIDEAS, A0A1C7CYX1
inactive: lapatinib 0.035 | crizotinib -0.088 | duvelisib -0.178 | doramapimod 0.077

(cont.)

MISP3 (UniProt Q96FF7)
inactive: lapatinib 0.04 | duvelisib 0.065

MPHOSPH9 (UniProt Q99550)
inactive: pictilisib -0.318 | crizotinib -0.062 | [1] 0.221 | gandotinib -0.159 | tozasertib 0.031 | doramapimod 0.03 | bafetinib 0.088 | [2] -0.213

MRC2 (UniProt Q9UBG0)
inactive: crizotinib -0.3 | [1] -0.192 | duvelisib -0.49 | gandotinib 0.075 | tozasertib 0.063 | doramapimod 0.035 | [2] -0.184

MLXIPL (UniProt Q9NP71)
inactive: crizotinib -0.009 | [1] 0.056 | gandotinib 0.154 | doramapimod -0.049 | [2] 0.023

MGAT1 (UniProt P26572)
inactive: lapatinib 0.058 | crizotinib -0.073 | [1] -0.101 | duvelisib -0.039 | gandotinib 0.043 | tozasertib -0.177 | doramapimod 0.005 | [2] 0.031

MRPL2 (UniProt Q5T653)
inactive: lapatinib -0.015 | pictilisib -0.045 | crizotinib -0.048 | [1] -0.029 | duvelisib 0.02 | gandotinib -0.041 | doramapimod 0.026 | bafetinib -0.029 | [2] 0.048

MPP5 (UniProt Q8N3R9)
inactive: pictilisib -0.091 | crizotinib -0.028 | [1] -0.003 | duvelisib -0.017 | gandotinib 0.01 | tozasertib -0.033 | doramapimod 0.115 | bafetinib -0.043 | [2] 0.099

MINDY2 (UniProt Q8NBR6)
inactive: lapatinib -0.04 | pictilisib 0.007 | crizotinib -0.048 | [1] 0.127 | gandotinib -0.04 | tozasertib 0.005 | doramapimod 0.016 | bafetinib -0.091 | [2] -0.123

MLKL (UniProt Q8NB16)
inactive: lapatinib -0.128 | pictilisib -0.013 | crizotinib 0.122 | [1] -0.138 | gandotinib 0.029 | tozasertib -0.047 | doramapimod -0.025 | bafetinib -0.137 | [2] 0.217

MNT (UniProt Q99583)
inactive: lapatinib 0.035 | crizotinib -0.017 | [1] -0.091 | duvelisib -0.06 | gandotinib -0.08 | tozasertib -0.124 | doramapimod -0.039 | [2] 0.093

MMACHC (UniProt Q9Y4U1)
inactive: pictilisib 0.005 | [1] -0.157 | duvelisib -0.083 | gandotinib -0.104 | bafetinib -0.067 | [2] 0.088

MINDY1 isoform 3 (UniProt Q8N5J2)
inactive: lapatinib -0.002 | pictilisib 0 | crizotinib -0.045 | duvelisib 0.051 | tozasertib -0.036 | doramapimod 0.051 | bafetinib -0.11

MKRN3 (UniProt Q13064)
inactive: lapatinib -0.095 | pictilisib -0.111 | crizotinib -0.064 | [1] 0.015 | duvelisib -0.126 | gandotinib -0.006 | doramapimod -0.037 | bafetinib 0.019 | [2] -0.033

MKKS (UniProt Q9HB66)
inactive: lapatinib 0.135 | tozasertib 0.044

MOB1A (UniProt Q9H8S9)
inactive: tozasertib -0.051

MIER3 isoform 2 (UniProt Q7Z3K6)
inactive: pictilisib 0.097 | crizotinib -0.066 | [1] -0.008 | duvelisib 0.023 | gandotinib -0.12 | tozasertib 0.064 | doramapimod 0.14 | bafetinib -0.013 | [2] 0.093

MLF2 (UniProt Q15773)
inactive: pictilisib -0.024 | crizotinib 0.042 | [1] 0.038 | duvelisib -0.111 | gandotinib -0.002 | tozasertib -0.085 | doramapimod 0 | bafetinib 0.141 | [2] -0.017

MKKS (UniProt Q9NPJ1)
inactive: pictilisib -0.011 | [1] -0.046 | duvelisib -0.058 | gandotinib 0.13 | tozasertib -0.239 | bafetinib 0.074 | [2] -0.193

MR1 (UniProt Q95460)
inactive: pictilisib 0.046 | duvelisib 0.089 | tozasertib -0.089 | bafetinib -0.047

MIIP (UniProt Q5JXC2)
inactive: pictilisib -0.054 | crizotinib -0.082 | doramapimod 0.044 | bafetinib 0

MID1IP1 (UniProt Q9NPA3)
inactive: pictilisib 0.008 | crizotinib -0.017 | [1] 0.037 | duvelisib 0.047 | gandotinib -0.029 | tozasertib 0.025 | doramapimod 0 | bafetinib -0.098 | [2] -0.044

MROH1 (UniProt Q8NDA8)
inactive: pictilisib -0.073 | crizotinib -0.111 | [1] -0.205 | duvelisib 0.104 | gandotinib -0.058 | tozasertib 0.055 | doramapimod 0.074 | bafetinib -0.324 | [2] 0.196

MOCS2 (UniProt O96033)
inactive: lapatinib 0.025 | crizotinib -0.065 | duvelisib 0.013 | doramapimod 0.012

MRPL22 (UniProt Q9NWU5)
inactive: lapatinib -0.023 | crizotinib -0.047 | [1] -0.038 | gandotinib -0.018 | doramapimod 0.016 | [2] 0.05

MLF1 isoform 3 (UniProt P58340)
inactive: [1] 0.11 | gandotinib -0.11 | [2] -0.049
